Common to all, as to settings: yeast three-hybrid, YBZ-1, SC-Leu-His + 0.5 mM 3-AT, 4 days
Assay [1] deals with T1, PUM1 PUF domain R5-PHQ R6-SWD C1007P + R1008H + N1043S + Y1044W + Q1047D (UniProt Q14671).
T1 sequence: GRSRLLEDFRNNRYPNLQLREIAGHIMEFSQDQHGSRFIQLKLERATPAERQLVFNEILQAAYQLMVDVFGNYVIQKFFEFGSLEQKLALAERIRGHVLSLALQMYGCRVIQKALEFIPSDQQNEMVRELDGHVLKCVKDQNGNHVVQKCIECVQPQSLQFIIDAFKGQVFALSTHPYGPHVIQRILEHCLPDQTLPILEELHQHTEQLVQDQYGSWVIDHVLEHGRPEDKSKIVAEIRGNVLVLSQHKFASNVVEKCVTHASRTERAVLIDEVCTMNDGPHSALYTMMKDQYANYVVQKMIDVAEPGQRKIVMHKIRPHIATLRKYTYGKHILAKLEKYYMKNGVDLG

Assay [2] deals with T2, PUM1 PUF domain R3-THE R4-TFR R7-NPG C935T + R936H + Q939E + N971T + H972F + Q975R + S1079N + N1080P + E1083G (UniProt Q14671).
T2 sequence: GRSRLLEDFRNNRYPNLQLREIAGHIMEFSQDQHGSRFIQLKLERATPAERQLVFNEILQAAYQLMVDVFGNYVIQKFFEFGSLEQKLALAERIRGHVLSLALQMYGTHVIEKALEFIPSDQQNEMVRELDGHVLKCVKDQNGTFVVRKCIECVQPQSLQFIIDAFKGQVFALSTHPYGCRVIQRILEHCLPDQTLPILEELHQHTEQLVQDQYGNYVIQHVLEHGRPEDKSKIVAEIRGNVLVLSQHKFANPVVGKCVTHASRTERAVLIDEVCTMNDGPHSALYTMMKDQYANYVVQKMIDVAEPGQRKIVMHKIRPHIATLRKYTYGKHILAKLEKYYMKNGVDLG

In assay [3] the target is T3, PUM1 PUF domain R6-SWD R7-NPG N1043S + Y1044W + Q1047D + S1079N + N1080P + E1083G (Homo sapiens) (UniProt Q14671).
T3 sequence: T1 sequence with P180C, H181R, S252N, N253P, E256G

Assay [4] concerns the target T4, PUM1 PUF domain R6-SWD R7-NPG N1043S + Y1044W + Q1047D + S1079N + N1080P + E1083G (UniProt Q14671).
T4 sequence: T1 sequence with P180C, H181R, S252N, N253P, E256G

The target in assay [5] is T5, PUM1 PUF domain R8-NFV Y1123F + Q1126V (Homo sapiens) (UniProt Q14671).
T5 sequence: T1 sequence with P180C, H181R, S216N, W217Y, D220Q, Y296F, Q299V

Assay [6] concerns the target T6, PUM1 PUF domain R8-NWG Y1123W + Q1126G (Homo sapiens) (UniProt Q14671).
T6 sequence: T1 sequence with P180C, H181R, S216N, W217Y, D220Q, Y296W, Q299G

The target of assay [7] is T7, PUM1 PUF domain R8-PWS N1122P + Y1123W + Q1126S (Homo sapiens) (UniProt Q14671).
T7 sequence: T1 sequence with P180C, H181R, S216N, W217Y, D220Q, N295P, Y296W, Q299S

Assay [8] deals with T8, PUM1 PUF domain R8-PWW N1122P + Y1123W + Q1126W (Homo sapiens) (UniProt Q14671).
T8 sequence: T1 sequence with P180C, H181R, S216N, W217Y, D220Q, N295P, Y296W, Q299W

Assay [9] deals with T9, PUM1 PUF domain R8-RGW N1122R + Y1123G + Q1126W (Homo sapiens) (UniProt Q14671).
T9 sequence: T1 sequence with P180C, H181R, S216N, W217Y, D220Q, N295R, Y296G, Q299W

Assay [10] concerns the target T10, PUM1 PUF domain R8-SYW N1122S + Q1126W (Homo sapiens) (UniProt Q14671).
T10 sequence: T1 sequence with P180C, H181R, S216N, W217Y, D220Q, N295S, Q299W

Numbering of substitutions follows the chain as printed. The list shows a part of the results. For some assays here: At the low end of the ranking the order means little. For some assays here: Construct or isoform of the protein are uncertain.

Take “GGCUAGAACUAGUGGAUCCCCCGGCGCCCGGCGGCUCGAGCCCGGGUAAGUUGAAUAGGUCUGCAUGCCGCCGGGCGCCAUGCCUGCAGGUCGACUCUAGAAAACAUG”: in [1], the binding signal (log2 enrichment (interaction score)) is less than -7.26.
Turning to “GGCUAGAACUAGUGGAUCCCCCGGCGCCCGGCGGCUCGAGCCCGGGUAAGAUUAAAGCGUCUGCAUGCCGCCGGGCGCCAUGCCUGCAGGUCGACUCUAGAAAACAUG”, in assay [1], the binding signal (log2 enrichment (interaction score)) was -7.26.
Regarding “GGCUAGAACUAGUGGAUCCCCCGGCGCCCGGCGGCUCGAGCCCGGGUAAGUUGAAUAAGUCUGCAUGCCGCCGGGCGCCAUGCCUGCAGGUCGACUCUAGAAAACAUG”, in [1], the binding signal (log2 enrichment (interaction score)) is -7.42.
Take “GGCUAGAACUAGUGGAUCCCCCGGCGCCCGGCGGCUCGAGCCCGGGUAAGAUGAGGAAGUCUGCAUGCCGCCGGGCGCCAUGCCUGCAGGUCGACUCUAGAAAACAUG”: the binding signal (log2 enrichment (interaction score)) in assay [1] was -7.71.
“GGCUAGAACUAGUGGAUCCCCCGGCGCCCGGCGGCUCGAGCCCGGGUAAGUAGAAGGGGUCUGCAUGCCGCCGGGCGCCAUGCCUGCAGGUCGACUCUAGAAAACAUG”: the binding signal (log2 enrichment (interaction score)) in [1] is -6.25.
Regarding “GGCUAGAACUAGUGGAUCCCCCGGCGCCCGGCGGCUCGAGCCCGGGUAAGUUACUAUAGUCUGCAUGCCGCCGGGCGCCAUGCCUGCAGGUCGACUCUAGAAAACAUG”, the binding signal (log2 enrichment (interaction score)) in assay [1] was -7.22.
Consider “GGCUAGAACUAGUGGAUCCCCCGGCGCCCGGCGGCUCGAGCCCGGGUAAGUCAAAAUAGUCUGCAUGCCGCCGGGCGCCAUGCCUGCAGGUCGACUCUAGAAAACAUG”, for which, in [1], the binding signal (log2 enrichment (interaction score)) was less than -7.96.
With “GGCUAGAACUAGUGGAUCCCCCGGCGCCCGGCGGCUCGAGCCCGGGUAAGUGGACAAAGUCUGCAUGCCGCCGGGCGCCAUGCCUGCAGGUCGACUCUAGAAAACAUG”, the binding signal (log2 enrichment (interaction score)) in assay [1] was -6.81.
Consider “GGCUAGAACUAGUGGAUCCCCCGGCGCCCGGCGGCUCGAGCCCGGGUAAGUUGCAGCCGUCUGCAUGCCGCCGGGCGCCAUGCCUGCAGGUCGACUCUAGAAAACAUG”, for which the binding signal (log2 enrichment (interaction score)) in assay [2] was -3.09; in assay [3], -1.14.
Turning to “GGCUAGAACUAGUGGAUCCCCCGGCGCCCGGCGGCUCGAGCCCGGGUAAGUUGAGCUAGUCUGCAUGCCGCCGGGCGCCAUGCCUGCAGGUCGACUCUAGAAAACAUG”, the binding signal (log2 enrichment (interaction score)) in assay [1] was -7.3.
For “GGCUAGAACUAGUGGAUCCCCCGGCGCCCGGCGGCUCGAGCCCGGGUAAGUAUACGUAGUCUGCAUGCCGCCGGGCGCCAUGCCUGCAGGUCGACUCUAGAAAACAUG”, the binding signal (log2 enrichment (interaction score)) in assay [1] is -7.77.
On to “GGCUAGAACUAGUGGAUCCCCCGGCGCCCGGCGGCUCGAGCCCGGGUAAGUGAAACAAGUCUGCAUGCCGCCGGGCGCCAUGCCUGCAGGUCGACUCUAGAAAACAUG”, for which, in [1], the binding signal (log2 enrichment (interaction score)) was less than -7.5.
Turning to “GGCUAGAACUAGUGGAUCCCCCGGCGCCCGGCGGCUCGAGCCCGGGUAAGUGUACACCGUCUGCAUGCCGCCGGGCGCCAUGCCUGCAGGUCGACUCUAGAAAACAUG”, in assay [1], the binding signal (log2 enrichment (interaction score)) is -6.95.
On the same count and under the same terms, the same measure for “GGCUAGAACUAGUGGAUCCCCCGGCGCCCGGCGGCUCGAGCCCGGGUAAGUUGAGAUAGUCUGCAUGCCGCCGGGCGCCAUGCCUGCAGGUCGACUCUAGAAAACAUG”: less than -6.98; for “GGCUAGAACUAGUGGAUCCCCCGGCGCCCGGCGGCUCGAGCCCGGGUAAGUAUAGGUAGUCUGCAUGCCGCCGGGCGCCAUGCCUGCAGGUCGACUCUAGAAAACAUG”: -7.2.
For the sequence “GGCUAGAACUAGUGGAUCCCCCGGCGCCCGGCGGCUCGAGCCCGGGUAAGCAGAAAAGGUCUGCAUGCCGCCGGGCGCCAUGCCUGCAGGUCGACUCUAGAAAACAUG”, in [1], the binding signal (log2 enrichment (interaction score)) is less than -7.76.
With “GGCUAGAACUAGUGGAUCCCCCGGCGCCCGGCGGCUCGAGCCCGGGUAAGCAUAAACUGUCUGCAUGCCGCCGGGCGCCAUGCCUGCAGGUCGACUCUAGAAAACAUG”, in assay [1], the binding signal (log2 enrichment (interaction score)) was -8.33.
Turning to “GGCUAGAACUAGUGGAUCCCCCGGCGCCCGGCGGCUCGAGCCCGGGUAAGUUUGAUUAGUCUGCAUGCCGCCGGGCGCCAUGCCUGCAGGUCGACUCUAGAAAACAUG”, in assay [4], the binding signal (log2 enrichment (interaction score)) was -2.04.
“GGCUAGAACUAGUGGAUCCCCCGGCGCCCGGCGGCUCGAGCCCGGGUAAGUUUCAAACGUCUGCAUGCCGCCGGGCGCCAUGCCUGCAGGUCGACUCUAGAAAACAUG”: the binding signal (log2 enrichment (interaction score)) in assay [4] was -2.19.
Take “GGCUAGAACUAGUGGAUCCCCCGGCGCCCGGCGGCUCGAGCCCGGGUAAGCGUAAAUAGUCUGCAUGCCGCCGGGCGCCAUGCCUGCAGGUCGACUCUAGAAAACAUG”: the binding signal (log2 enrichment (interaction score)) in [5] is -2.27; in assay [6] it was -0.72; in assay [7] it was 1.14; in [8], 1.65; in assay [9], -2.27; in assay [10] it was -0.45.
